# Test results from patent US5902815A, “Use of 5HT-2A serotonin agonists to prevent adverse effects of NMDA receptor hypofunction” (priority 1996, dated 1999).
# Tests used:
# [1] = tested on: vacuolated pyramidal neurons of posterior cingulate and retrosplenial (PC/RS) cortices, MK-801 neurotoxicity; experiment: Blocking MK-801 neurotoxicity (vacuolated PC/RS cortical neurons) in rats by serotonergic agents; type: in vivo, adult female rats; settings: Rattus norvegicus, Pyramidal neuron, ip, 4 h, read-out: ED50 against the neurotoxic action of MK-801, lisuride; n=45
# Protocol: Each test rat also received a 5HT-2A/2C agonist drug (LSD, DOB, DOI, or DOM), while control rats received an inert carrier liquid as a placebo. After 4 hours, the rats were sacrificed, and brain tissue from specific regions which are susceptible to NR/hypo damage (layers III and IV of the posterior cingulate (PC) and retrosplenial (RS) cortices) were examined for vacuoles in the neurons, which are an indicator of toxic neuronal injury induced by NMDA receptor hypofunction.
# DOI was purchased from Research Biochemicals International (Natick, Mass.).
# For each test agent, at least 20 rats were used, and at least four dosages were tested.
# The rats were sacrificed four hours after drug administration, and brain tissue from the PC/RS region was histopathologically evaluated by previously described methods using double-blinded techniques (Olney et al 1991). The number of vacuolated PC and RS neurons were counted on each side of the brain at a rostrocaudal level immediately posterior to where the corpus callosum ceases decussating across the midline (approximately 5.6 mm caudal to Bregma; Paxinos & Watson, The Rat Brain in Stereotaxic Coordinates, 2d Ed., 1986).
# This drug is widely used in Europe, and is a 5HT-2A agonist but a 5HT-2C antagonist.
# It is described in Nozulak et al 1993.
# [2] = tested on: 5HT2C receptors; settings: Burris et al 1991 or other literature; cited from earlier work
# [3] = tested on: D2 class of dopamine receptors; settings: cited from earlier work
smiles,measurement,setting,value
CCN(CC)C(=O)N[C@H]1C=C2c3cccc4[nH]cc(c34)C[C@H]2N(C)C1 [Lisuride],ED50,[1],0.17 mg/kg
same,activity at 5HT-2C receptors,[2],antagonism and suppression of activity
same,activity at D2 dopamine receptors,[3],agonist at the D2 class of dopamine receptors
